Measurements taken from PubChem BioAssay AID504444 (National Center for Advancing Translational Sciences (NCATS), 2011).
Among all 360,000 compounds or so, about 7,500 (2.1%) were called active. Inconclusive means that the source gave no clear call. Such entries were picked first, then a sample of the others. Calls follow the shape of the dose curve; as a rule, active = well fitted inhibition curve with a large enough effect; inconclusive = small, poorly fitted or top-dose-only effect, or effect the other way; inactive = flat fitted curve, though single readings scatter. A potency beside an inconclusive call is a rough fit, not a confirmed value.

Assay: Nrf2 qHTS screen for inhibitors; also: nearly all actives have a fitted effect of over 60% in size
Details: A549 ARE-Fluc reporter, luciferase luminescence, 18-24 h; series mostly up to 46 µM
How it was run: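 Nrf2 activity is the BugLite luminescence, read 15 min after reagent at room temperature, following CellTiter-Fluor cytotoxicity readout (30 min, 37C). Compound titrations were applied for 18-24 h to 5000 A549 ARE_Fluc cells/well in 5% FBS OPTI-MEM.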
Potency is read from the fitted curve at half-maximal effect.

SMILES	Potency
C=CCNC(=O)NC(=O)COC(=O)CC(NC(N)=O)c1ccc(Cl)cc1 (configuration not stated)	inconclusive: 5.17 µM [activator, partial curve, poor fit]
CCOC(=O)c1sc(=NC(=O)c2ccccc2Br)n(C)c1C	inconclusive: 2.91 µM [activator, full curve]
Cc1nn(Cc2c(F)c(F)c(F)c(F)c2F)c(C)c1NC(=O)c1ccc(COc2ccccc2Cl)cc1	inconclusive: 20.6 µM [falling, partial curve]
O=C(/C=C/c1cc(Br)ccc1F)OCC(=O)N1CCCC1	inactive
Cc1cc(S(N)(=O)=O)c(N)c(S(N)(=O)=O)c1	inconclusive: 0.92 µM [falling, partial curve, poor fit]
Clc1ccc2c(c1)C1CC2CCN1Cc1ccccc1 (configuration not stated)	inconclusive: 13 µM [activator, partial curve, poor fit]
Cc1cc(C)cc(N(CC(=O)Nc2ccc(-c3nc4ccc(C)cc4s3)cc2)S(C)(=O)=O)c1	inconclusive: 6.51 µM [activator, partial curve, poor fit]
Cc1cc(N/N=C\c2ccc(Br)cc2)nc(-n2nc(C)cc2C)n1	inconclusive: 8.2 µM [activator, partial curve]
C=CCNc1nnc(Cc2ccc(C(C)C)cc2)c(=O)[nH]1	inactive
O=C(Nc1ncc(Cc2cccc(C(F)(F)F)c2)s1)c1ccc(-c2cccc([N+](=O)[O-])c2)o1	active: 2.59 µM
Cc1ccc(CNC(=O)c2nnn(CC(=O)Nc3cc(C)cc(C)c3)c2N)cc1	inactive
Cc1ccc2c(c1)NC(=O)[C@@]1(C)[C@@H](c3ccccc3)[C@H]3COc4ccccc4[C@@H]3N1C2=O	inconclusive: 7.31 µM [activator, partial curve]
Cc1nc(SCC(=O)N2CCCCCC2)c2c(=O)n(C)c(=O)n(CC(C)C)c2n1	inconclusive: 20.6 µM [falling, single point]
CCOC(=O)N1CCN(c2cccc(C)c2C)CC1	inconclusive: 29.1 µM [falling, single point]
Cc1ccc(C)c(/C=C/C(=O)c2ccccc(=O)c2O)c1	active: 23.1 µM
Cc1cccc(C)c1NC(=S)NCCSc1ccc(Cl)cc1	active: 25.9 µM
CCCCNc1c(-c2ccc(OC)c(SC(C)CC)c2)nc2ccc(C)cn12 (configuration not stated)	inconclusive: 20.6 µM [falling, single point]
Nc1ccc2nn(-c3ccc(Cl)cc3)nc2c1	inconclusive: 0.92 µM [activator, full curve]
O=C(Nc1cccc(S(=O)(=O)N2CCCCC2)c1)C1=NN(c2ccccc2)C(=O)CC1	inconclusive: 20.6 µM [falling, single point]
Cc1ccc2c(Cl)cc(Cl)c(OCC(=O)NC(C)(C)C)c2n1	inconclusive: 25.9 µM [falling, partial curve, poor fit]
Cc1cc2oc(=O)c(CC(=O)O)c(C)c2c2occ(C(C)(C)C)c12	inconclusive: 9.2 µM [activator, partial curve]
CC(Nc1ccc(Br)cc1)C(=O)N/N=C/c1ccccc1OCc1ccccc1 (configuration not stated)	inconclusive: 29.1 µM [falling, single point]
O=C(NC1CCCC1)C(=O)N(Cc1cccnc1)C(C(=O)NCc1ccco1)c1ccccc1F (configuration not stated)	inconclusive: 10.3 µM [falling, partial curve]

SMILES	Potency
CCCn1c(N2CCN(C(=O)Nc3ccc(Cl)cc3)CC2)nc2ccccc21	inconclusive: 23.1 µM [falling, partial curve]
Cc1c(C(=O)NCc2cccnc2)oc2ccc(S(=O)(=O)N3CC(C)CC(C)C3)cc12 (configuration not stated)	inactive
COC(=O)/C(=C1/Oc2cc(C)oc(=O)c2S1)C(F)(F)F	inconclusive: 20.6 µM [falling, single point]
O=C(COc1ccc(-c2ccccc2)cc1)N1CCN(S(=O)(=O)Cc2ccccc2)CC1	inactive
COC(=O)c1c(C)[nH]c(-c2csc(N)n2)c1C	inconclusive: 14.6 µM [activator, partial curve]
CCSc1nnc(NC(=O)c2ccccc2C)s1	inconclusive: 9.2 µM [activator, partial curve]
CN(C)S(=O)(=O)c1cccc(NC(=O)c2cc(-c3cccs3)nc3ccccc23)c1	inactive
O=S(=O)(c1cccc(Cl)c1)c1nnn2c1nc(NC1CCCCCC1)c1sccc12	inconclusive: 29.1 µM [activator, single point]
Cn1c(SCc2ccc(C(C)(C)C)cc2)nnc1C1COc2ccccc2O1 (configuration not stated)	inconclusive: 13 µM [activator, partial curve]
COc1ccc(C(=O)Nc2nncs2)c(OC)c1	inconclusive: 23.1 µM [activator, single point]
NNC(=O)c1oc2nc(-c3ccccc3)cc(-c3ccco3)c2c1N	inconclusive: 18.4 µM [falling, partial curve, poor fit]
CC1Sc2ccc(S(=O)(=O)CCC(=O)N3CCN(c4cccc(Cl)c4)CC3)cc2NC1=O (configuration not stated)	active: 16.4 µM
O=C(N/N=C/c1ccc2cccc(OCc3ccccc3)c2n1)c1ccc(Br)cc1	inconclusive: 16.4 µM [falling, partial curve, poor fit]
C=C1SC(=Nc2ccccc2Cl)N(C(=O)c2sc3ccccc3c2Cl)C1(C)C	inactive
O=C(CSc1ccccc1F)NNC(=O)c1cncc(Br)c1	inactive
COc1ccc(NCc2nnc(SCC(=O)N3CCCc4ccccc43)o2)cc1	inactive
CCCC[C@@H](CN[C@H](C)CNC)NCC1CCC(C(C)(C)C)CC1 (some centres not stated)	inactive
Cc1ccc(S(=O)(=O)N2CCN(c3ccccc3)CC2)cc1C(=O)NC1CCCCC1	inconclusive: 23.1 µM [falling, single point]
O=C(NC(=S)Nc1ccc(S(=O)(=O)Nc2nccs2)cc1)c1ccc(Br)o1	inconclusive: 2.31 µM [falling, partial curve]
CC(C)(C)C1CCC(OC(=O)CN2CCOCC2)CC1 (configuration not stated)	inconclusive: 14.6 µM [activator, partial curve, poor fit]
O=C(/C=C/c1c(Cl)nc2ccccn12)N1CCN(c2ccccc2F)CC1	inconclusive: 18.4 µM [falling, partial curve]
N=c1c(C(=O)NCC2CCCO2)cc2c(=O)n3ccccc3nc2n1Cc1ccccc1Cl (configuration not stated)	inconclusive: 5.17 µM [falling, full curve]
Cc1ccc(C)c(S(=O)(=O)c2nnn3c2nc(NCc2ccc4c(c2)OCO4)c2sccc23)c1	inconclusive: 29.1 µM [falling, single point]

Taken from above.
In Potency, CC(C)(C)C1CCC(OC(=O)CN2CCOCC2)CC1 (configuration not stated) has the entry inconclusive: 14.6 µM [activator, partial curve, poor fit]
In Potency, O=S(=O)(c1cccc(Cl)c1)c1nnn2c1nc(NC1CCCCCC1)c1sccc12 has the entry inconclusive: 29.1 µM [activator, single point]
In Potency, COC(=O)c1c(C)[nH]c(-c2csc(N)n2)c1C has the entry inconclusive: 14.6 µM [activator, partial curve]

The list goes on.

SMILES	Potency
FC(F)Oc1ccc(NC(=S)NC2CCCCCCC2)cc1	inconclusive: 29.1 µM [falling, single point]
CCN(CC)S(=O)(=O)c1ccc2c(c1)NC(=O)C1CCCN21 (configuration not stated)	inconclusive: 0.58 µM [falling, full curve, poor fit]
CN(C)c1ccc(NC(=O)Cn2c(SCc3ccccc3F)nc3cccnc32)cc1	inconclusive: 5.17 µM [activator, partial curve]
Cc1ccc(NC(=O)c2ccc(S(=O)(=O)NCc3ccco3)cc2)cc1	inconclusive: 8.2 µM [activator, partial curve]
CCN(c1ccccc1)S(=O)(=O)c1ccc(C(=O)Nc2ccccc2OC)cc1	inconclusive: 14.6 µM [falling, partial curve, poor fit]
CC(/C=N/NC(=O)Cc1cccs1)=C\c1ccco1	inactive
CC(C)Cn1c(N)c(C(=O)COC(=O)c2ccccc2C(=O)c2ccccc2)c(=O)n(C)c1=O	active: 13 µM
O=c1c2sc3ccccc3c2n(Cc2ccccc2F)c(=O)n1CCc1ccccc1	inconclusive: 23.1 µM [activator, partial curve, poor fit]
Cc1cc(N2CCN(C(c3ccccc3)c3ccc(Cl)cc3)CC2)n2ncnc2n1 (configuration not stated)	inactive
Oc1ccc(Br)cc1-c1cc(-c2ccccc2F)[nH]n1	inconclusive: 20.6 µM [activator, partial curve, poor fit]
CC(/C=N/NC(=O)c1cccnc1)=C\c1ccco1	inactive
C=C[C@@H]1[C@@H](C)[C@H](C)C(=O)C([C@H](O)C(C)C)[C@@H]1C (some centres not stated)	inactive
C=CCN1C(=O)C(Cc2cccc(C)c2)SC1=Nc1ccc(C(=O)O)cc1 (configuration not stated)	inconclusive: 0.0366 µM [falling, full curve, poor fit]
Cc1cc(NC(=O)c2cccc(Oc3ccccc3)c2)n[nH]1	inconclusive: 2.59 µM [activator, full curve]
CCSc1nnc(NC(=O)C(CC)(C(F)(F)F)C(F)(F)F)s1	active: 14.6 µM
O=C(CSc1cn(CCNC(=O)c2ccccc2)c2ccccc12)NCC1CCCO1 (configuration not stated)	inconclusive: 13 µM [falling, partial curve, poor fit]
Cc1ccccc1Nc1nc(-c2sc(NC(=O)c3ccco3)nc2C)cs1	inactive
CN(C(=S)Nc1ccc(F)cc1)C(c1ccccc1)c1ccccc1	inconclusive: 29.1 µM [falling, partial curve, poor fit]
Cc1ccc(-n2ncc(C(=O)N3CCN(Cc4ccccc4)CC3)c2C2CCN(C(=O)OC(C)(C)C)CC2)c(C)c1	inconclusive: 29.1 µM [falling, single point]
CCNc1nc(NC(C)C)nc(Oc2ccc(OCCOc3ccc(C)cc3)nn2)n1	inconclusive: 20.6 µM [falling, partial curve, poor fit]
COc1ccc(OCC(=O)Nc2ccc(N3CCN(C(=O)c4ccccc4C)CC3)cc2)cc1	inconclusive: 7.31 µM [falling, partial curve, poor fit]
